# Data: US20080312263A1, “PHARMACEUTICAL COMPOSITIONS FOR THE PREVENTION AND TREATMENT OF ATHEROSCLEROSIS” (UNIVERSITE RENE DESCARTES-PARIS 5, priority 2004, published 2008)
# Experiments:
# Watanabe rabbits = assay: Lipid profile (plasmatic cholesterol, triglycerides, HDL, LDL) in treated Watanabe rabbits; assay type: in vivo, rabbit; settings: for plasmatic triglycerides concentration, course: FIG. 4
# Protocol: 2. […] The cholesterol is assayed according to an enzymatic colorimetric test using a cholesterol-esterase and a cholesterol-oxidase, followed by a reaction with a peroxidase. The latter reacts with hydrogen peroxide and releases a red derivative the stain intensity of which (measured between 550 and 700 nm) is directly proportional to the cholesterol concentration. The triglyceride assay is also based on this principle, using a lipase which releases glycerol, and a peroxidase which reacts with the hydrogen peroxide and forms a red compound. The HDL cholesterol is assayed by an enzymatic calorimetric test in two phases. The first selects the different lipid fractions by means of dextran sulphate. […] The results are expressed in mmol/l. The kits necessary for all these assays are supplied by RANDOX (Montpellier, France).
# [1] = rabbit, in vivo
smiles,measurement,setting,value
"CC(C)c1c(C(=O)Nc2ccccc2)c(-c2ccccc2)c(-c2ccc(F)cc2)n1CC[C@@H](O)C[C@@H](O)CC(=O)O [atorvastatin, Atorvastatin]",effect on the plasmatic cholesterol,"Watanabe rabbits; 8 weeks treatment, versus control at T8, FIG. 3",beneficial effect
same,reduction of the plasmatic cholesterol concentration,Watanabe rabbits; between T0 and T8,27%
same,"plasmatic triglycerides concentration, course",Watanabe rabbits; between T0 and T8,virtually constant
same,"plasmatic triglycerides concentration, course","Watanabe rabbits; between T0 and T8, listed as atorvastatin alone",does not increase
same,"plasmatic arginine concentration, course",[1],the same for the control group and the statin group
